Experimental data reported in article PMC4276840.
These are yes or no findings as the source states them, for the method shown. Some results given as binding are weak or reduced against the parent protein; the word gives no strength. Tags and fused reporters may be left off the sequences shown.

What was measured:
[1] = molecular target: T1, mPDPN-Fc, recombinant Fc fusion of the mouse Podoplanin extracellular domain (mouse) (UniProt Q62011); assay: platelet adhesion assay; static; mPDPN-Fc (10 μg/ml) coated on glass coverslips, blocked with denatured BSA; washed mouse platelets (2 x 10^7/ml) 45 min at 37 °C; DIC microscopy; CLEC-2-deficient platelets, BSA and a control Fc protein as controls; only the target purified
T1 sequence (chain, in the bilayer experiments, monobiotinylated; Alexa 488 or Dylight 594 label): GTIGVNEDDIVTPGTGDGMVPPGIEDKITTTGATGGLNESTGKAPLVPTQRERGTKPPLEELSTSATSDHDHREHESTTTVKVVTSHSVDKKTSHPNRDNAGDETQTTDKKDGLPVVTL

[2] = molecular target: T1, mPDPN-Fc, recombinant Fc fusion of the mouse Podoplanin extracellular domain (mouse); assay: platelet adhesion assay; glass-supported planar lipid bilayers with monobiotinylated mPDPN-Fc tethered via streptavidin to biotinylated lipids (mobile); washed mouse platelets 45 min at 37 °C; DIC microscopy; CLEC-2-deficient platelets as control; only the target purified

binding [1]: binds
binding [2]: binds
B1: C-type lectin receptor 2 (CLEC-2), mouse, on platelets (receptor, UniProt Q9JL99 1-229)
chain: MQDEDGYITLNIKPRKQALSSAEPASSWWRVMALVLLISSMGLVVGLVALGIMSVTQQKYLLAEKENLSATLQQLAKKFCQELIRQSEIKTKSTFEHKCSPCATKWRYHGDSCYGFFRRNLTWEESKQYCTEQNATLVKTASQSTLDYIAERITSVRWIGLSRQNSKKDWMWEDSSVLRKNGINLSGNTEENMNCAYLHNGKIHPASCKERHYLICERNAGMTRVDQLL
